Source: PubChem BioAssay AID1053208 (Peter MacCallum Cancer Centre, 2014)
Here is a random part of about 17,000 deposited reagents. 788 of them (4.7%) were called active. 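Calls rest on z-score classes alone; an extra cut-off of viability at most 70% of control was not applied to them.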 Entries without a mark were called inactive. Further read-outs or replicates are left out here.

Assay: 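Genes whose silencing cuts survival of bone tumour cells only with doxorubicin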 (primary screen)
Cells: mouse osteosarcoma cells, early-passage culture from an engineered mouse model of fibroblastic bone tumour
Knock-down reagent: siRNA pool against mouse genes, 40 nM
Timing: about 120 h (48 h before drug, then 72 h with drug)
Treatment: doxorubicin 100 nM for 72 h, roughly 30-40% inhibitory dose
Measured: 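Luminescent ATP signal taken as viability with or without 100 nM doxorubicin for 72 h; mean of two wells set against non-targeting siRNA and turned into robust z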
Reading the numbers: viability z-score with doxorubicin: higher = more viable cells under doxorubicin; viability z-score without drug: higher = more viable cells with knock-down alone
Rule for the call: 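a pool counts as active when its viability z-score with doxorubicin is -2 or below and its z-score without drug lies between -2 and 2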

gene symbol | combined z-score class | viability z-score with doxorubicin | viability z-score without drug
H2bc3 | no change with or without drug | -0.22 | 0.17
Klk1b11 | no change with or without drug | 0.79 | 1.18
9030203C11Rik | high cell count with doxorubicin only | 2.25 | 0.51
Dnase2a | no change with or without drug | 0.56 | 0.51
Hoxa10 | no change with or without drug | 0.9 | 0.17
Dus1l | no change with or without drug | 0.11 | 1.01
Get3 | no change with or without drug | 0.67 | -0.17
Pik3cd | no change with or without drug | -1.12 | -0.17
Adm2 | no change with or without drug | -0.22 | -0.51
Or8b39 | no change with or without drug | 0 | 0.51
Or2ag15 | no change with or without drug | 0.22 | 0.17
Foxf2 | high cell count without drug only | 0.34 | 2.87
Tmem64 | no change with or without drug | -1.57 | -0.84
Inhba | no change with or without drug | 0.67 | 0.67
C87436 | no change with or without drug | -1.57 | 0.17
Sdk2 | no change with or without drug | 1.24 | 0.84
6030448M23RIK | no change with or without drug | 0.45 | -0.51
Atg4d | no change with or without drug | -0.67 | 0.17
Arhgdig | low cell count with doxorubicin only (active) | -2.25 | -0.84
Cenps | no change with or without drug | 0.11 | -0.17
Ap3s1 | no change with or without drug | -0.22 | -0.67
Or2ag16 | no change with or without drug | -0.67 | -0.51
Smarca4 | no change with or without drug | -0.67 | -0.67
Syt3 | no change with or without drug | 0.45 | -1.85
Pigm | no change with or without drug | -0.67 | 1.18
Prss35 | no change with or without drug | 0.67 | 1.52
Mlkl | no change with or without drug | 0.45 | 0
Wdr86 | no change with or without drug | 1.01 | 0.51
Tle6 | no change with or without drug | 0.22 | -0.84
Sncg | no change with or without drug | -0.22 | -0.51
Tmem47 | no change with or without drug | 0.56 | 0.51
Snx15 | no change with or without drug | 0.56 | -0.84

Copied from above for reference:
gene symbol | combined z-score class | viability z-score with doxorubicin | viability z-score without drug
Dus1l | no change with or without drug | 0.11 | 1.01
Get3 | no change with or without drug | 0.67 | -0.17
Pik3cd | no change with or without drug | -1.12 | -0.17
Adm2 | no change with or without drug | -0.22 | -0.51
Or8b39 | no change with or without drug | 0 | 0.51
Or2ag15 | no change with or without drug | 0.22 | 0.17
Foxf2 | high cell count without drug only | 0.34 | 2.87
Tmem64 | no change with or without drug | -1.57 | -0.84
Inhba | no change with or without drug | 0.67 | 0.67

The list goes on:
gene symbol | combined z-score class | viability z-score with doxorubicin | viability z-score without drug
Zc3hav1 | no change with or without drug | 0.22 | 0.17
Pih1d1 | no change with or without drug | 1.12 | 1.18
Tet2 | no change with or without drug | 0.11 | 1.18
Hip1 | no change with or without drug | 0.67 | 1.85
Kdm1a | no change with or without drug | 0.9 | 0.84
Apcs | no change with or without drug | -0.11 | -1.69
Fam3a | no change with or without drug | -0.45 | 1.01
Sox30 | no change with or without drug | -0.22 | -1.69
Cenpx | no change with or without drug | 0 | 0.67
Me1 | no change with or without drug | 1.12 | 1.52
Cd68 | no change with or without drug | 0.22 | -0.51
Nudcd1 | no change with or without drug | 1.69 | 0.84
Bcl11b | no change with or without drug | -0.67 | -0.84
Tspo2 | no change with or without drug | 1.35 | 1.18
Mrpl43 | low cell count without drug only | -1.69 | -3.54
Rbm19 | no change with or without drug | 0.22 | 0.17
Snrpb2 | no change with or without drug | 1.01 | -0.51
Nod2 | no change with or without drug | 0 | 1.69
Poldip2 | no change with or without drug | 0.67 | -0.17
Fh1 | no change with or without drug | 0.11 | 1.18
B3gnt3 | no change with or without drug | -0.9 | 0.34
Defb35 | no change with or without drug | 0.9 | 1.18
Crb1 | no change with or without drug | -0.22 | -0.17
Lrrn3 | no change with or without drug | -1.01 | -0.84
Cldn13 | no change with or without drug | -1.8 | -0.17
Wsb1 | no change with or without drug | 0.34 | -0.17
Vwa3b | no change with or without drug | -0.67 | 1.18
Tcf4 | no change with or without drug | 0 | 0.84
Or4a70 | no change with or without drug | 0.67 | 0.51
2900092C05Rik | low cell count with and without drug | -2.25 | -2.19
Arhgap24 | no change with or without drug | -1.12 | 0.51
